Results are given in words; binding and its absence hold for the method and conditions named. Binding seen in cells or lysates may run through a third protein. Here binding means that the protein was enriched with, or labelled near, the bait; the list need not be complete.
Target: HS-EDD (2×HA/2×Strep-tagged E3 identified by differential display) (human) (UniProt O95071)
Test: affinity purification with mass spectrometry; lysates of HS-EDD or HS tag HEK293 cells tandem affinity-purified by HA and Streptactin resins; SDS-PAGE, in-gel trypsin digest, LC-MS (LTQ-Orbitrap); proteins found in the HS-only sample removed; n = 3

The chains behind the UniProt entries cited, without tags or fusion partners. Residues count along the entry.
UniProt O95071: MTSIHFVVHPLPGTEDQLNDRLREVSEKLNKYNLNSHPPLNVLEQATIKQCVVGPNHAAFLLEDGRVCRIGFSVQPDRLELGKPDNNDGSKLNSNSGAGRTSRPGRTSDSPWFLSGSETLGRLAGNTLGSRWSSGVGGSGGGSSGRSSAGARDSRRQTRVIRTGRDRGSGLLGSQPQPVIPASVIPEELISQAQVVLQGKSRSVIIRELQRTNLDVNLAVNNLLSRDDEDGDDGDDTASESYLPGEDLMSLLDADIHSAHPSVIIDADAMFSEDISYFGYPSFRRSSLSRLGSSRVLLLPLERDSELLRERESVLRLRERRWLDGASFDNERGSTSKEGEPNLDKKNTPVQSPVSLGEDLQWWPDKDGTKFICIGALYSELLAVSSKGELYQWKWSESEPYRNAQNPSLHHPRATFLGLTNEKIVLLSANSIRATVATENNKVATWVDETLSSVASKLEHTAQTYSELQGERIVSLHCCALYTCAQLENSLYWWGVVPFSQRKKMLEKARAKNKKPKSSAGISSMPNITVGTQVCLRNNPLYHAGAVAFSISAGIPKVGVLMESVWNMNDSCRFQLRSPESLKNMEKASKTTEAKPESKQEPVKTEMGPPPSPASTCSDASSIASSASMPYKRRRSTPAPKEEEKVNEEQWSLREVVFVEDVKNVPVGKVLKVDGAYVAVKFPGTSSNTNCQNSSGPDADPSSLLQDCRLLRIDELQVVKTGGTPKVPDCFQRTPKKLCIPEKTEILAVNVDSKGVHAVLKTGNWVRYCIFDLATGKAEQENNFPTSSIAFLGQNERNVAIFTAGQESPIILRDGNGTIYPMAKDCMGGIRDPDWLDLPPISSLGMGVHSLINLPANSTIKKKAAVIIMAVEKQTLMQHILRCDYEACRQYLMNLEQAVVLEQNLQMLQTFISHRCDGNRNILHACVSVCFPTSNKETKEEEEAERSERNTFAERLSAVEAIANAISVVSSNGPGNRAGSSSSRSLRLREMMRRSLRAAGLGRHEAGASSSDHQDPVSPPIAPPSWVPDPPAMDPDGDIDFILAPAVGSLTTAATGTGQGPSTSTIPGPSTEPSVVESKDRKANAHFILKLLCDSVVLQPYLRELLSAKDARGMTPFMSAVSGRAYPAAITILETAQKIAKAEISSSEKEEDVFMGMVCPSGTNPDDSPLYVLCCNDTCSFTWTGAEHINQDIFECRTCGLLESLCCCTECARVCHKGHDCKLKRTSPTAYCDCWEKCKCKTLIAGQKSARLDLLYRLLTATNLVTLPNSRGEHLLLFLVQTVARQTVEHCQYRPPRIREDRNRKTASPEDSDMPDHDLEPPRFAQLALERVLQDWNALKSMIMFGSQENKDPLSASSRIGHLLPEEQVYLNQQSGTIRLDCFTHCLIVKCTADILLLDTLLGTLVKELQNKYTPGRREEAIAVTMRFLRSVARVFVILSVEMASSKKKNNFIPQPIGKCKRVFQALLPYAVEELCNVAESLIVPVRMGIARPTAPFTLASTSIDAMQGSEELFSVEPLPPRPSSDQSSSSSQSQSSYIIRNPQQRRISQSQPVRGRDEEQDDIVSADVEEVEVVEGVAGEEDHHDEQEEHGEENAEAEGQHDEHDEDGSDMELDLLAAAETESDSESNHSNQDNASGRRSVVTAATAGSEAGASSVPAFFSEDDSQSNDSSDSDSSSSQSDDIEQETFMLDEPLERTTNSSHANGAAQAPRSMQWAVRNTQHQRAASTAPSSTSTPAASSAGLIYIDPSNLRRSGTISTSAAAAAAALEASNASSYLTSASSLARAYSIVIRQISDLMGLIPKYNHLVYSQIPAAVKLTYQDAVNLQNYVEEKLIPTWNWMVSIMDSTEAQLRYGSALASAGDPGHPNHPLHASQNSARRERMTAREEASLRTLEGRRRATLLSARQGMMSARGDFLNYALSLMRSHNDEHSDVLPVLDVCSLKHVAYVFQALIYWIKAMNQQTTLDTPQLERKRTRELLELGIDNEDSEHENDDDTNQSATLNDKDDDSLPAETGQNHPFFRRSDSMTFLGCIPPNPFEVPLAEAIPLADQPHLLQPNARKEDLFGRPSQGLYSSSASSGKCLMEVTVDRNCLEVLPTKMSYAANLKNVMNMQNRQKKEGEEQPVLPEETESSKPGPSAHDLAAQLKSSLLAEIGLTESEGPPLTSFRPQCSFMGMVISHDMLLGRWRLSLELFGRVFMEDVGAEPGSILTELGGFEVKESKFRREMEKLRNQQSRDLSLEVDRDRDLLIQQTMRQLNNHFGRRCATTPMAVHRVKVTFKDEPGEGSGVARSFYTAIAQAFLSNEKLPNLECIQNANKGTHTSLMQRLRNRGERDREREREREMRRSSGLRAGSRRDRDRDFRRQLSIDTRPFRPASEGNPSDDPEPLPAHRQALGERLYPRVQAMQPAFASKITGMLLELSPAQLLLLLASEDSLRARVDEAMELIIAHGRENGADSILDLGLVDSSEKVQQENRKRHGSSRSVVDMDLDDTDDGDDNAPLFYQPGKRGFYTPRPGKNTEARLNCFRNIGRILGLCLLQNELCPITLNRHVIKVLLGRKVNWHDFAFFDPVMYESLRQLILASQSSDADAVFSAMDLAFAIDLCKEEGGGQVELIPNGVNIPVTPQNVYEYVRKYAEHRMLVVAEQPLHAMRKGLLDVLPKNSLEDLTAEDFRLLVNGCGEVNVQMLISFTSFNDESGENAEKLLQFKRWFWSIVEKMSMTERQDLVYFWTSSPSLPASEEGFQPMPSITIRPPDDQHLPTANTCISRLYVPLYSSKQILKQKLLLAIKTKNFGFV
UniProt Q07021, residues 74-282: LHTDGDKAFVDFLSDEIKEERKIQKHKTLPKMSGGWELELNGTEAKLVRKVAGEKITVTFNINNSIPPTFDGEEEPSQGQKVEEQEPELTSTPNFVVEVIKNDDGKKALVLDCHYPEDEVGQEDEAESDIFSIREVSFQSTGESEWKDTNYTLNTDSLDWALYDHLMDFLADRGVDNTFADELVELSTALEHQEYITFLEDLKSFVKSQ
UniProt Q9NQH7, residues 32-507: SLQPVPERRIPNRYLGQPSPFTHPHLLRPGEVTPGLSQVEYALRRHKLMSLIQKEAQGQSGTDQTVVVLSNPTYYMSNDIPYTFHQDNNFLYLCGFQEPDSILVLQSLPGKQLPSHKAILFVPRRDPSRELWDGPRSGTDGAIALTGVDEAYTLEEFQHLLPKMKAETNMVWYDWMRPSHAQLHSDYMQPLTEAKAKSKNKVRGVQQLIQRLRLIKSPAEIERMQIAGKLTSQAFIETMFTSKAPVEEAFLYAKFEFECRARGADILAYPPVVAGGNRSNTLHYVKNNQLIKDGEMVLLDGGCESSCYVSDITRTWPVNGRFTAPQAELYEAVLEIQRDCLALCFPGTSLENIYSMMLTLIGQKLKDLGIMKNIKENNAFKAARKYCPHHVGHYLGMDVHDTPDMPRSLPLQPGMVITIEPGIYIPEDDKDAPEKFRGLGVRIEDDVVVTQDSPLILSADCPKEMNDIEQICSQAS
UniProt O43684: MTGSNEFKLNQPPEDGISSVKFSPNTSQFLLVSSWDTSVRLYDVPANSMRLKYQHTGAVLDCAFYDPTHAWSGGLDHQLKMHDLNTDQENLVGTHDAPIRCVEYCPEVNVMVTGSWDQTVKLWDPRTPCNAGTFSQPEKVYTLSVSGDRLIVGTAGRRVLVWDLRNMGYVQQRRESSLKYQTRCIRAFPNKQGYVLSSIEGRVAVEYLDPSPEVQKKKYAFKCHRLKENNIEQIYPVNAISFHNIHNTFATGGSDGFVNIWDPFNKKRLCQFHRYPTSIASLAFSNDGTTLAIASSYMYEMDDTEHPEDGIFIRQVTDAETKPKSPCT

Substance | binding
C1QBP (from UniProt Q07021 74-282) | binds
Xaa-Pro aminopeptidase 3 (from UniProt Q9NQH7 32-507) (enzyme) | binds
endogenous BUB3 (budding uninhibited by benzimidazoles 3) (from UniProt O43684 1-328) | binds
